# At least one compound was matched to its structure with a doubt left.
# Assays:
# T98G = conditions: 0.1 and 1 μM; all time points after day 3; MOI 0.1
# U-87MG = conditions: 0.1 and 1 μM; Day 6; T50006V MOI 0.01
smiles,measurement,setting,value
C[C@@H]1C[C@H]2[C@@H]3CCC4=CC(=O)C=C[C@]4(C)[C@@]3(F)[C@@H](O)C[C@]2(C)[C@@]1(O)C(=O)CO [Dexamethasone],RRV infection and spread,T98G,clear advantage
same,activity or benefit observed in the screening experiments,RRV,activity was observed
same,% GFP cells transduced,U-87MG,clear advantage

# — patent US9669049B2, “Compositions comprising gamma retrovirus vectors and methods of treating proliferative disorders” (Tocagen Inc., priority 2010, dated 2017)
